Laboratory results published in the supplement of paper PMC10735217.
The list shows a part of the results. Repeats in this data set agree poorly, so a single value says little.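 The human kidney-derived cells carry a stably integrated construct of eight TEAD-binding elements driving luciferase, read by luminescence in a drug-repurposing library screen. A compound counts as a hit when its signal is more than five robust Z scores above the plate mean.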

System: HEK293A TEAD-LUC reporter
Assay: TEAD-luciferase reporter activity (YAP activation), robust Z score vs plate; higher = stronger YAP/TEAD activation
Settings: 24 h

Structure (SMILES) | TEAD-luciferase reporter activity (compound concentration: 200 nM) | TEAD-luciferase reporter activity (compound concentration: 2 uM) | TEAD-luciferase reporter activity (compound concentration: 10 uM)
COc1ccc(CCN2CCC[C@@H]2CN2c3ccccc3COc3ccccc32)cc1 | inactive: -1.37 | inactive: 1.02 | inactive: 4.96
CCC(C)C(CC)C(N)=O (centres undefined) [Valnoctamide] | inactive: -0.363 | inactive: -1.49 | inactive: 0.175
CCCCN(CCC1CCCCC1)Cc1ccc(C(=O)N[C@@H](CCSC)C(=O)OC)c(-c2ccccc2C)c1 | inactive: -0.159 | inactive: 0.481 | inactive: 3.71
O=C(O)c1ccc(C(F)(F)F)cc1-c1ccc2c(c1)OCC(Cc1ccccc1)C2O (centres undefined) | inactive: -0.392 | inactive: -1.09 | inactive: 1.13
CN/C(=N\C#N)NCCSCc1csc(N=C(N)N)n1 | inactive: -0.552 | inactive: -1.19 | inactive: -1.71
COc1ccc(C2C(=O)c3ccccc3C2=O)cc1 [Pharmaprojects No. 1804] | inactive: 0.112 | inactive: -0.771 | inactive: 0.129
O=C(O)C(Cl)(Cl)CCCC(Cl)(Cl)C(=O)O | inactive: 1.41 | inactive: -2.73 | inactive: -0.645
N=C(N)NCCCCN | inactive: 0.0953 |  | inactive: -0.0754
COc1cc(C2OC(c3ccncc3)=NN2C(C)=O)cc(OC)c1OC (centres undefined) | inactive: -0.395 | inactive: -0.564 | inactive: 1.46
O=C(CCC(=O)N1CCN(CC(=O)N2CCCC2)CC1)c1ccc(Cl)cc1 | inactive: -2.6 | inactive: -0.613 | inactive: -0.359
CC(C)(NC(=O)[C@H](N)Cc1c[nH]c2ccccc12)C(=O)O | inactive: -0.415 | inactive: -1.93 | active: 5.05
CCS(=O)(=O)N1CC(CC#N)(n2cc(-c3ncnc4[nH]ccc34)cn2)C1 [baricitinib] |  | inactive: -1.07 | 
CCS(=O)(=O)N1CC(CC#N)(n2cc(-c3ncnc4[nH]ccc34)cn2)C1 [Baricitinib] | inactive: -3.12 |  | inactive: 1.02
CO[C@H]1C[C@H]2CC(=O)C[C@H]2C1 | inactive: -1.78 | inactive: -2.16 | inactive: 1.29
COc1ccccc1OCC(O)COC(N)=O (centres undefined) | inactive: -0.19 |  | inactive: -1.18
COc1ccccc1OCC(O)COC(N)=O (centres undefined) [Methocarbamol] |  | inactive: 1.85 | 
CCCCOC(=O)COc1cc(-c2ccccc2S(C)(=O)=O)ccc1CCNS(=O)(=O)c1cc(C(N)=NO)ccc1O | inactive: -1.12 | inactive: -0.0394 | inactive: -0.362
CC[C@H](C)[C@H](N)C(=O)N[C@@H](Cc1c[nH]c2ccccc12)C(=O)O | inactive: 0.0212 | inactive: -1.65 | inactive: -0.387
CCCc1c(C(C)C)cc(C(C)C)c(C(C)O)c1-c1ccc(F)cc1 (centres undefined) | inactive: -0.902 | inactive: -0.177 | inactive: -2.11
c1ccc(CC2=NCCN2)cc1 [Priscoline] | inactive: -0.0605 |  | inactive: -1.07
c1ccc(CC2=NCCN2)cc1 |  | inactive: 0.04 | 
O=C(Nc1ccc(C2CCN([C@@H](C(=O)O)c3ccccc3)CC2)cc1)c1ccccc1-c1ccc(C(F)(F)F)cc1 [metabolite of Usistapide] | inactive: -1.02 | inactive: -1.64 | inactive: 0.53
CCS(=O)(=O)CCn1c([N+](=O)[O-])cnc1C | inactive: 0.467 |  | inactive: -0.471
CCS(=O)(=O)CCn1c([N+](=O)[O-])cnc1C [tinidazole] |  | inactive: -2.65 | 
C/C(=C\c1ccc(C(=O)O)cc1)c1ccc(C(C)C)s1 [Namirotene] | inactive: -0.987 | inactive: -1.75 | inactive: -0.633
COc1ccc(-n2c(C)cnc2O)cc1 | inactive: -0.0214 | active: 5.37 | inactive: 1.19
O=C(O)CCCN1C(=O)c2cccc3cccc(c23)C1=O | inactive: -1.09 | inactive: -2.82 | inactive: -0.22
O=C1[N]C(=O)N(C2C[C@H](OCc3ccccc3)[C@@H](CO)O2)CC1C(F)(F)F (some centres undefined) | inactive: -1.32 | inactive: -0.691 | inactive: 0.328
CCOC(=O)[C@H](CCc1ccccc1)N[C@@H](C)C(=O)N1CCC[C@H]1C(=O)O | inactive: 1.59 | inactive: -0.385 | inactive: -0.993

A stretch from the list above, for reference:
Structure (SMILES) | TEAD-luciferase reporter activity (compound concentration: 200 nM) | TEAD-luciferase reporter activity (compound concentration: 2 uM) | TEAD-luciferase reporter activity (compound concentration: 10 uM)
O=C(O)c1ccc(C(F)(F)F)cc1-c1ccc2c(c1)OCC(Cc1ccccc1)C2O (centres undefined) | inactive: -0.392 | inactive: -1.09 | inactive: 1.13
CN/C(=N\C#N)NCCSCc1csc(N=C(N)N)n1 | inactive: -0.552 | inactive: -1.19 | inactive: -1.71
COc1ccc(C2C(=O)c3ccccc3C2=O)cc1 [Pharmaprojects No. 1804] | inactive: 0.112 | inactive: -0.771 | inactive: 0.129
O=C(O)C(Cl)(Cl)CCCC(Cl)(Cl)C(=O)O | inactive: 1.41 | inactive: -2.73 | inactive: -0.645
N=C(N)NCCCCN | inactive: 0.0953 |  | inactive: -0.0754
COc1cc(C2OC(c3ccncc3)=NN2C(C)=O)cc(OC)c1OC (centres undefined) | inactive: -0.395 | inactive: -0.564 | inactive: 1.46
O=C(CCC(=O)N1CCN(CC(=O)N2CCCC2)CC1)c1ccc(Cl)cc1 | inactive: -2.6 | inactive: -0.613 | inactive: -0.359
